Measured values reported in patent WO2013011062A2.

Biological target: recombinant extracellular domain of human OSCAR (OSCAR-ECD) (human)
Assay: SPR competition: OSCAR-ECD premixed with mAb over immobilized collagen I and II

B1: anti-OSCAR mAb 16F56A2 (antibody, V domains shown)
VH: QVQLVQSGAEVKKPGSSVKVSCKASGGTFSNYAISWVRQAPGQGLEWMGRIIPILGIAHNAQKFQDRVTITADKSTSTAYMELSSLRSEDTAVYYCASPSSGKGLPYWFFDLWGRGTLVTVSS
VL: DIQMTQSPSFLSASVGDRVTITCRASQSISSYLNWYQQKPGKAPKLLIYAASSLQSGVPSRFSGSGSGTDFTLTISSLQPEDFATYYCQCGYSTPLTFGGGTKVEIKR
  binding: binds

B2: anti-OSCAR mAb 6F6B (antibody, V domains shown)
VH: EVQLQQSGAELVKPGASVKLSCTASGFNIKDTYVHWVKQRPDQGLEWIGRIDPAIGNTKYDPKFRGKATITADSSSNTAYLQLSSLTSEDTAVYYCARLSYGNYGLDYSMDYWGQGTSVTVSS
VL: DIVLTQSPATLSVTPGDSVSLSCRASQSITNNLHWYQQKSHESPRLLIKYASQSISGIPSRFRGSGSGTDFTLSINSVETEDFGVYFCQQSNTWPRTFGGGTKLEIKR
  binding: binds

No constants are given. Whether binding was seen depends on the method and setting. Binding calls can cover weak binding; strength is not graded here.
